Experimental data taken from PMC8583203, “DisA Restrains the Processing and Cleavage of Reversed Replication Forks by the RuvAB-RecU Resolvasome”.
Construct, isoform or probe ends are uncertain for at least one entry. For part of these data: Negatives hold for the conditions tested. Where a protein sequence is shown, tags need not be part of it. For part of these data: The comparison behind a weaker result is the experiment's own reference, which may not be listed here. For part of these data: At least one verdict was read from the data and is not stated in words by the source.

Key:
DisA (Bacillus subtilis) [1] = biological target: T1, DisA (Bacillus subtilis) (UniProt P37573); experiment: EMSA; details: 50 mM Tris-HCl pH 7.5, 50 mM NaCl, 1 mM DTT, 0.05 mg/mL BSA, 5% glycerol, 1 or 10 mM MgCl2 or 5 mM EDTA, 15 min 37 C, 0.2 nM DNA, label: 32P (5' by gamma-32P), folded or branched DNA; for binding result: recombinant protein
T1 sequence (looked up, limits assumed): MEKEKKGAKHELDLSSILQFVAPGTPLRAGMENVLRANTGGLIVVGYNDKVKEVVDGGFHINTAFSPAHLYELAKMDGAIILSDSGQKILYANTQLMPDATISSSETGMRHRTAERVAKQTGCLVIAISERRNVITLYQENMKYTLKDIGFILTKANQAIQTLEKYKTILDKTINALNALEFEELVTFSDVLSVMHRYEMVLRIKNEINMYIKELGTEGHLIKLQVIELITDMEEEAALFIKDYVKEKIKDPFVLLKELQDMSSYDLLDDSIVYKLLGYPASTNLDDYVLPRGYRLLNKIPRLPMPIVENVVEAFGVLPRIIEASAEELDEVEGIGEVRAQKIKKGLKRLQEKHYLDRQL

RuvB (Bacillus subtilis) [2] = biological target: T2, RuvB (Bacillus subtilis) (UniProt O32055); experiment: EMSA; details: ATPgS, 0.2% glutaraldehyde, no stable complex; 50 mM Tris-HCl pH 7.5, 50 mM NaCl, 1 mM DTT, 0.05 mg/mL BSA, 5% glycerol, 1 or 10 mM MgCl2 or 5 mM EDTA, 15 min 37 C, 0.2 nM DNA; native protein; label: 32P (5' by gamma-32P); folded or branched DNA
T2 sequence (looked up, limits assumed): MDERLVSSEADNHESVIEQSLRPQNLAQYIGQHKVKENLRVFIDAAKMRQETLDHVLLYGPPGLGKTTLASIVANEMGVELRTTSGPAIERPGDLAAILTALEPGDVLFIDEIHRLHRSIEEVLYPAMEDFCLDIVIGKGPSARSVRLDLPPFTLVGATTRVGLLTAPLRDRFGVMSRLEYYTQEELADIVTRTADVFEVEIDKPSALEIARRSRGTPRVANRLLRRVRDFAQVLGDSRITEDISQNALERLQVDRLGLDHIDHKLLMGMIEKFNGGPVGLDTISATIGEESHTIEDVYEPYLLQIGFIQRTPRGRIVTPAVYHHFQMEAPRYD

DisA (Bacillus subtilis) [3] = biological target: T1, DisA (Bacillus subtilis); experiment: DNase I footprinting; details: 10 mM Mg2+, 5 mM ATPgS, extended protection; 50 mM Tris-HCl pH 7.5, 50 mM NaCl, 1 mM DTT, 0.05 mg/mL BSA, 5% glycerol, 1 or 10 mM MgCl2 or 5 mM EDTA, 15 min 37 C, 0.2 nM DNA; recombinant protein; label: 32P (5' by gamma-32P); folded or branched DNA
RuvB (Bacillus subtilis) [4] = biological target: T2, RuvB (Bacillus subtilis); experiment: DNase I footprinting; details: 80 nM RuvB, 5 mM ATPgS, 10 mM Mg2+; 50 mM Tris-HCl pH 7.5, 50 mM NaCl, 1 mM DTT, 0.05 mg/mL BSA, 5% glycerol, 1 or 10 mM MgCl2 or 5 mM EDTA, 15 min 37 C, 0.2 nM DNA; native protein; label: 32P (5' by gamma-32P); folded or branched DNA

**Q.** With “CGCAAGCGACAGGAACCTCGAGAAGCTTCCGGTAGCAGCCTGAGCGGTGGTTGAATTCCTCGAGGTTCCTGTCGCTTGCG / CGCAGCGACAGGAACCTCGAGGAATTCAACCACCGCTCAACTCAACTGCAGTCTGACTCGAGGTTCCTGTCGCTTGCG / CGCAAGCGACAGGAACCTCGAGTCTAGACTGCAGTTGAGTCCTTGCTAGGACGGATCCCTCAGGTTCCTGTCGCTTGCG / CGCAAGCGACAGGAACCTCGAGGGATCCGTCCTAGCAAGGGGCTGCTACCGGAAGCTTCTCGAGGTTCCTGTCGCTTGCG [HJ-J3 DNA (fixed Holliday junction)]” as the sequence, how does the Kd (DisA (Bacillus subtilis) [1]; 1 mM Mg2+, recombinant …) read?
**A.** Its Kd is 18 nM.

**Q.** Does “CGCAAGCGACAGGAACCTCGAGAAGCTTCCGGTAGCAGCCTGAGCGGTGGTTGAATTCCTCGAGGTTCCTGTCGCTTGCG / CGCAGCGACAGGAACCTCGAGGAATTCAACCACCGCTCAACTCAACTGCAGTCTGACTCGAGGTTCCTGTCGCTTGCG / CGCAAGCGACAGGAACCTCGAGTCTAGACTGCAGTTGAGTCCTTGCTAGGACGGATCCCTCAGGTTCCTGTCGCTTGCG / CGCAAGCGACAGGAACCTCGAGGGATCCGTCCTAGCAAGGGGCTGCTACCGGAAGCTTCTCGAGGTTCCTGTCGCTTGCG [HJ-J3 DNA (fixed Holliday junction)]” bind (DisA (Bacillus subtilis) [1]; 5 mM EDTA, no Mg2+)?
**A.** Result: binds more weakly

**Q.** Does “CGCAAGCGACAGGAACCTCGAGAAGCTTCCGGTAGCAGCCTGAGCGGTGGTTGAATTCCTCGAGGTTCCTGTCGCTTGCG / CGCAGCGACAGGAACCTCGAGGAATTCAACCACCGCTCAACTCAACTGCAGTCTGACTCGAGGTTCCTGTCGCTTGCG / CGCAAGCGACAGGAACCTCGAGTCTAGACTGCAGTTGAGTCCTTGCTAGGACGGATCCCTCAGGTTCCTGTCGCTTGCG / CGCAAGCGACAGGAACCTCGAGGGATCCGTCCTAGCAAGGGGCTGCTACCGGAAGCTTCTCGAGGTTCCTGTCGCTTGCG [HJ-J3 DNA (fixed Holliday junction)]” bind (DisA (Bacillus subtilis) [1]; 10 mM Mg2+, 500 uM c-di-AMP)?
**A.** Result: binds more weakly

**Q.** Does “CGCAAGCGACAGGAACCTCGAGAAGCTTCCGGTAGCAGCCTGAGCGGTGGTTGAATTCCTCGAGGTTCCTGTCGCTTGCG / CGCAGCGACAGGAACCTCGAGGAATTCAACCACCGCTCAACTCAACTGCAGTCTGACTCGAGGTTCCTGTCGCTTGCG / CGCAAGCGACAGGAACCTCGAGTCTAGACTGCAGTTGAGTCCTTGCTAGGACGGATCCCTCAGGTTCCTGTCGCTTGCG / CGCAAGCGACAGGAACCTCGAGGGATCCGTCCTAGCAAGGGGCTGCTACCGGAAGCTTCTCGAGGTTCCTGTCGCTTGCG [HJ-J3 DNA (fixed Holliday junction)]” bind (RuvB (Bacillus subtilis) [2])?
**A.** Result: no binding

**Q.** Does “CGCAAGCGACAGGAACCTCGAGAAGCTTCCGGTAGCAGCCTGAGCGGTGGTTGAATTCCTCGAGGTTCCTGTCGCTTGCG / CGCAGCGACAGGAACCTCGAGGAATTCAACCACCGCTCAACTCAACTGCAGTCTGACTCGAGGTTCCTGTCGCTTGCG / CGCAAGCGACAGGAACCTCGAGTCTAGACTGCAGTTGAGTCCTTGCTAGGACGGATCCCTCAGGTTCCTGTCGCTTGCG / CGCAAGCGACAGGAACCTCGAGGGATCCGTCCTAGCAAGGGGCTGCTACCGGAAGCTTCTCGAGGTTCCTGTCGCTTGCG [HJ-J3 DNA (fixed Holliday junction)]” bind (DisA (Bacillus subtilis) [3])?
**A.** Result: binds

**Q.** Does “CGCAAGCGACAGGAACCTCGAGAAGCTTCCGGTAGCAGCCTGAGCGGTGGTTGAATTCCTCGAGGTTCCTGTCGCTTGCG / CGCAGCGACAGGAACCTCGAGGAATTCAACCACCGCTCAACTCAACTGCAGTCTGACTCGAGGTTCCTGTCGCTTGCG / CGCAAGCGACAGGAACCTCGAGTCTAGACTGCAGTTGAGTCCTTGCTAGGACGGATCCCTCAGGTTCCTGTCGCTTGCG / CGCAAGCGACAGGAACCTCGAGGGATCCGTCCTAGCAAGGGGCTGCTACCGGAAGCTTCTCGAGGTTCCTGTCGCTTGCG [HJ-J3 DNA (fixed Holliday junction)]” bind (RuvB (Bacillus subtilis) [4])?
**A.** Result: no binding
